PubChem BioAssay
The shares of active, inactive and inconclusive entries below differ from those in the screen. Calls of active or inactive are those of the source.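 How the source made its calls, unless noted: active means thallium flux slope above the same plate's solvent-only control mean plus 3 SD; inconclusive means the two replicate wells disagree; inactive means no significant difference from solvent-only control wells.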

Chains of the proteins cited; added tags and fusions are not shown. Lines headed by an entry give the natural chain unless they say otherwise; changes in a name come on top.
UniProt Q9H2X9: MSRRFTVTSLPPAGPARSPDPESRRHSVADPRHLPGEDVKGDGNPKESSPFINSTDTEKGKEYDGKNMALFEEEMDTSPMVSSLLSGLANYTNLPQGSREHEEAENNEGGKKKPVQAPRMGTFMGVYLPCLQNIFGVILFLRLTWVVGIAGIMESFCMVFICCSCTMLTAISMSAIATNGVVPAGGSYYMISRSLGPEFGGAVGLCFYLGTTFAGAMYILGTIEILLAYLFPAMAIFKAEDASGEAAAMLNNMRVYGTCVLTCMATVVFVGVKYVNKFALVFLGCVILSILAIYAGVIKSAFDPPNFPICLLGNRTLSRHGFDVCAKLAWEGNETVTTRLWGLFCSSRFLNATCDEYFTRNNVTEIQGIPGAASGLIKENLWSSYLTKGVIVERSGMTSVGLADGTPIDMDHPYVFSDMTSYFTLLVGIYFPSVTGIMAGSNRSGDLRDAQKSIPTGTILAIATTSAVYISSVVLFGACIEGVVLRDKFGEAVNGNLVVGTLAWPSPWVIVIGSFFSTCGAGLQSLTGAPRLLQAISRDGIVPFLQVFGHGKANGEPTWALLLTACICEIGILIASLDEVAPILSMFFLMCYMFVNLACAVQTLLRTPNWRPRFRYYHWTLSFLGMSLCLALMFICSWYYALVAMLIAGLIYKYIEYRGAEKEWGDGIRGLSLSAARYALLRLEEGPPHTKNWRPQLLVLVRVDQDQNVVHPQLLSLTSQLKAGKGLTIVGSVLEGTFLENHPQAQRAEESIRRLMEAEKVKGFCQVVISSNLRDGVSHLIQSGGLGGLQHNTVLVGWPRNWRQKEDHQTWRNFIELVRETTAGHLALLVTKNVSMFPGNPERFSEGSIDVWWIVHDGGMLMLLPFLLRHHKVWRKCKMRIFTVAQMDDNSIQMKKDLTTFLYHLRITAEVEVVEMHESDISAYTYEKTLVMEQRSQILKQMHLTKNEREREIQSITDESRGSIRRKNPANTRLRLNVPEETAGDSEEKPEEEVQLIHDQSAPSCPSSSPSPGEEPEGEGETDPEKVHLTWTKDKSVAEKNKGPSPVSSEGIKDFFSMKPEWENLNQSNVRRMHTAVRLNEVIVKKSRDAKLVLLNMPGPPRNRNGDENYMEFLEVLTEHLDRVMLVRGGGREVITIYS

Key:
[1] = biological target: Solute carrier family 12 member 5 (Homo sapiens) (UniProt Q9H2X9); assay: retest of KCC2 transport modulators without sodium – cell-based, HEK293 KCC2, thallium flux, secondary assay, confirmation (AID 1713); conditions: FluoZin2 fluorescence, at 10 µM, hits give high values
In short: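 Evaluation: F/F0 slope over 10–20 s post-thallium, baseline-normalized / Material: KCC2-expressing HEK cells / Detection: FluoZin2 fluorescence, 480/540 nm, 1 Hz / Times: 48 min dye loading / Medium: Sodium-free N-methylglucamine chloride buffer / Compound: 10 µM single dose, 0.1% DMSO / Control set: bumetanide and DMSO controls / Probe or stimulus: thallium sulfate stimulus buffer at pH 7.3 / Repeats: duplicates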

[2] = biological target: Solute carrier family 12 member 5 (Homo sapiens) (UniProt Q9H2X9); assay: modulation of KCC2 thallium flux in HEK cells – cell-based, ouabain, retest, confirmation (AID 1717;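 active means thallium flux slope beyond 3 SD from same-plate DMSO control mean in most replicates, usually higher, sometimes lower; inconclusive means repeat tests gave conflicting results; inactive means no significant difference from controls in most replicates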;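 further: slope of initial-normalized fluorescence between seconds 10 and 20 after thallium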); conditions: HEK293-KCC2, thallium flux FluoZin2 fluorescence, at 10 µM, bidirectional: low = inhibitor, high = activator
[3] = native HEK Tl+ uptake effects, second counter-screen – HEK cells, counterscreen 2, counter-screen for KCC2 modulator project, confirmation (AID 1718;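 active means thallium flux slope above the same plate's solvent-control mean plus 3 SD in both duplicate wells; inconclusive means duplicate wells that disagreed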;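 further: run without ouabain in cells lacking the KCC2 cotransporter; slope of fluorescence scaled to its starting value between 10 and 20 s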); conditions: HEK293 parental, thallium flux FluoZin-2 fluorescence slope; at 10 µM
In short: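 Material: parental HEK cells. Medium: HBSS, 20 mM HEPES. Reagent: thallium sulfate stimulus, 12 mM in buffer, pH 7.3. Incubation: overnight cell culture at 37 °C, 48 min dye loading, compound before thallium. Signal: FluoZin-2 fluorescence kinetics. Read-out basis: thallium influx rate. Repeats: Per-replicate slope values.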

Row | Structure (SMILES) | normalised thallium flux (F/F0 slope) [1] | raw Tl+ flux slope (below DMSO = inhibition, above = activation) [2] | thallium flux slope [3]
1 | O=C(O)C(=O)/C(=C\c1cccc(Cl)c1)c1ccc2ccccc2n1 | inactive: 0.00622 | inconclusive: 0.0241 | active: 0.0159
2 | O=C(N/N=C/C1CC=CCC1)c1cc2ccccc2cc1O (configuration not stated) | inconclusive: 0.012 | inconclusive: 0.033 | 
3 | COc1ccccc1CN(Cc1nc2ccccc2c(=O)[nH]1)S(=O)(=O)c1ccc(C)cc1 | inactive: 0.0094 | inactive: 0.0195 | inactive: 0.0103
4 | CCCCn1c(SCC(=O)NCc2ccccc2)nc2ccc(N3CCOCC3)cc2c1=O | inactive: 0.00705 | inconclusive: 0.0245 | inconclusive: 0.0128
5 | Nc1c(C(=O)c2ccccc2)sc2snc(SCC(=O)c3ccccc3)c12 | inactive: 0.00845 | inactive: 0.0193 | inactive: 0.00997
6 | N#C/C(=C(/O)COc1ccccc1)c1nc2ccccc2s1 | inconclusive: 0.00545 | inactive: 0.0169 | 
7 | CCC(=O)NNC(=O)c1cc(COc2cc(Cl)cc(Cl)c2)on1 | inactive: 0.00681 | inconclusive: 0.0249 | active: 0.0141
8 | CC1CCCC(C)N1c1nnc(NC(=O)c2cc(-c3ccc(Br)cc3)on2)s1 (configuration not stated) | inactive: 0.00869 | inconclusive: 0.0267 | inconclusive: 0.0102
9 | Cc1cccc(NC(=S)N=Nc2c(O)n(C)c3ccc(S(=O)(=O)N4CCOCC4)cc23)c1 | inconclusive: 0.0118 | inactive: 0.0265 | inconclusive: 0.0111
10 | CCc1nnc(NC(=O)c2ccc3ccccc3n2)s1 | inconclusive: 0.0112 | inconclusive: 0.0293 | 
11 | CC1=CCCC(C)(C)C1/C=C/C(C)=N/NC(=O)c1ccncc1 (configuration not stated) | inconclusive: 0.0113 | inconclusive: 0.0378 | active: 0.0123
12 | O=C(NC(=S)Nc1ccc2oc(=O)ccc2c1)c1cc2ccccc2o1 | active: 0.0163 | inconclusive: 0.035 | active: 0.0172
13 | CCOC(=O)C1=NN(C(=O)COc2ccccc2)C(O)(c2ccc(Cl)cc2)C1 (configuration not stated) | active: 0.012 | inactive: 0.0257 | inconclusive: 0.0109
14 | S=C(NCc1ccco1)N/N=C/c1ccccc1Cl | inactive: 0.0089 | active: 0.0336 | inconclusive: 0.0112
15 | Cc1sc2ncnc(SC(C)C#N)c2c1C (configuration not stated) | inconclusive: 0.0109 | inconclusive: 0.0258 | inconclusive: 0.0108
16 | Cc1cccc(-c2nc(=S)c3c(o2)CCCC3)c1 | active: 0.0151 | inconclusive: 0.0269 | inconclusive: 0.0109
17 | CC(C)c1ccc(NC(=S)NNC(=O)c2cccs2)cc1 | inconclusive: 0.0111 | inconclusive: 0.0326 | inconclusive: 0.0102
18 | S=c1[nH]nc(COc2ccccc2)n1/N=C/C=C/c1ccccc1 | active: 0.0135 |  | inconclusive: 0.0117
19 | O=C(NC(=S)Nc1ccccc1[N+](=O)[O-])c1ccccc1Cl | inconclusive: 0.0127 | active: 0.0297 | active: 0.0133
20 | CCOc1cc(S(=O)(=O)NCc2ccccc2)ccc1F | inconclusive: 0.00467 | inconclusive: 0.0157 | inactive: 0.011
21 | O=C(Nc1nnc(C2=COCCO2)o1)c1ccc(Cl)cc1 | inconclusive: 0.0105 |  | inconclusive: 0.00997
22 | CCSS(=O)(=O)c1cccc2cccnc12 | inconclusive: 0.00842 | inconclusive: 0.0222 | active: 0.0138
23 | COc1ccc(-c2coc3cc(O)cc(O)c3c2=O)cc1 | inconclusive: 0.00593 |  | inconclusive: 0.00996
24 | COc1ccc(-c2nnc3n(CCc4ccccc4)c(=O)c4ccccc4n23)cc1OC | inactive: 0.00878 | inconclusive: 0.0241 | inconclusive: 0.01
25 | O=C(NC(=S)Nc1cccc2ncccc12)c1cccs1 | inconclusive: 0.0203 |  | active: 0.0183
26 | CCn1c(SCC(=O)Nc2ccc(Cl)cc2)nc2nc3c(cc2c1=O)CCCC3 | inconclusive: 0.0125 | inconclusive: 0.0231 | active: 0.0135
27 | COC(=O)c1ccc(Cn2c(O)c(N=NC(N)=S)c3ccccc32)o1 | inconclusive: 0.0123 | inactive: 0.0265 | inconclusive: 0.0116
28 | CC(=O)c1c(C)[nH]c(-c2ccccc2)nc1=S | active: 0.0166 | inactive: 0.0248 | inconclusive: 0.0111

Sorted by SMILES length (descending): some entries from above.
Row | Structure (SMILES) | normalised thallium flux (F/F0 slope) [1] | raw Tl+ flux slope (below DMSO = inhibition, above = activation) [2] | thallium flux slope [3]
3 | COc1ccccc1CN(Cc1nc2ccccc2c(=O)[nH]1)S(=O)(=O)c1ccc(C)cc1 | inactive: 0.0094 | inactive: 0.0195 | inactive: 0.0103
16 | Cc1cccc(-c2nc(=S)c3c(o2)CCCC3)c1 | active: 0.0151 | inconclusive: 0.0269 | inconclusive: 0.0109
14 | S=C(NCc1ccco1)N/N=C/c1ccccc1Cl | inactive: 0.0089 | active: 0.0336 | inconclusive: 0.0112
